Test results published in paper PMC3762332.
For at least one entry, the source does not settle the construct or the ends of the probe. For part of these data: Protein sequences can lack the tags named with them.

The chains behind the UniProt entries cited, without tags or fusion partners. Where a name states a change or a piece, a line headed by the entry shows the natural chain unless it says otherwise.
UniProt Q8IW36: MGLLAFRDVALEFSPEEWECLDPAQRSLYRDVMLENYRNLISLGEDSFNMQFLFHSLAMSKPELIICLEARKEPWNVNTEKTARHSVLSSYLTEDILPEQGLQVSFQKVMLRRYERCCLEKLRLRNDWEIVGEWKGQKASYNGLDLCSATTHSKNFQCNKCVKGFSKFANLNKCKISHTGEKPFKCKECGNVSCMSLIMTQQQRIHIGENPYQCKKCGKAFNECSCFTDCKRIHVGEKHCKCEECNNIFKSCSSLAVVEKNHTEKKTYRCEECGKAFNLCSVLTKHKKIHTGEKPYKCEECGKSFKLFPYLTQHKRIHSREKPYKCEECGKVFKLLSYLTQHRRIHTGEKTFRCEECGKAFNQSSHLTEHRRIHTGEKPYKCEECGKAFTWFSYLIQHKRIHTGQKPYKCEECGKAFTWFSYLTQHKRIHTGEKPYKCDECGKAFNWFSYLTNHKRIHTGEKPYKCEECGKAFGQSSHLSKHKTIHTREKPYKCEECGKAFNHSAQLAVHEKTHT
UniProt Q9BWM5: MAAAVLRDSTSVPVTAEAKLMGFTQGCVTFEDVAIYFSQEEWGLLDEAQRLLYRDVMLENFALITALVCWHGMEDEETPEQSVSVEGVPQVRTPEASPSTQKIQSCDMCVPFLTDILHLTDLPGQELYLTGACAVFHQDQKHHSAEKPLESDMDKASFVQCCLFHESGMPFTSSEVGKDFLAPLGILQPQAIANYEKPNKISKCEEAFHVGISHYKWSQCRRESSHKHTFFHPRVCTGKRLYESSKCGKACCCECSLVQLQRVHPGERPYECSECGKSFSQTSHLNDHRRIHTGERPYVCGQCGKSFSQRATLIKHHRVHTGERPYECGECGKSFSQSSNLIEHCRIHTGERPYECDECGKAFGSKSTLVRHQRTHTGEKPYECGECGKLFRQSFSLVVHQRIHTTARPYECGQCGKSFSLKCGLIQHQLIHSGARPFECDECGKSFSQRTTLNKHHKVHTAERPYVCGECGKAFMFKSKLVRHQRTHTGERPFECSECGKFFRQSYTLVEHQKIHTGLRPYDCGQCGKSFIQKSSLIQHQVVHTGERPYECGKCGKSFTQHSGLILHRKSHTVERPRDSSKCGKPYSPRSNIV
UniProt P20719: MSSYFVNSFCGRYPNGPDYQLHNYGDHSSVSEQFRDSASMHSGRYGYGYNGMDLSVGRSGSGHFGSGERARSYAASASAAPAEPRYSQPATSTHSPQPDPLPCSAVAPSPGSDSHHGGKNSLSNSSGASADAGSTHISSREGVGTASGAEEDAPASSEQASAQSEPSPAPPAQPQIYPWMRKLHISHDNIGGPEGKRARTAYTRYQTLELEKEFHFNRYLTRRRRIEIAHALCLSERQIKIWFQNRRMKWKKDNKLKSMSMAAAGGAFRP
UniProt O00716: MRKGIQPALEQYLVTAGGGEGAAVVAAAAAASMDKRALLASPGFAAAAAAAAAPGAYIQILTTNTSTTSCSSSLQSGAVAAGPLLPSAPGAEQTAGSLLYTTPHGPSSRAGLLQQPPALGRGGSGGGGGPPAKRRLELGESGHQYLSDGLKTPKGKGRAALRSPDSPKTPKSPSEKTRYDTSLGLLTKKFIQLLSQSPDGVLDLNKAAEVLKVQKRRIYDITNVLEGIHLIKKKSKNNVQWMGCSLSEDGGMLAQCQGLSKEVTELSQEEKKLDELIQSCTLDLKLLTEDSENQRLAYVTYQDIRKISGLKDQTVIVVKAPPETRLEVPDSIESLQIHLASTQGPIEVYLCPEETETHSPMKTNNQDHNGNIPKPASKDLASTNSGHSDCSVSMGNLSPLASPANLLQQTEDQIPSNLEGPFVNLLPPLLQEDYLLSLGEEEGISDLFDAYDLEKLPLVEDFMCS
UniProt Q8NC26: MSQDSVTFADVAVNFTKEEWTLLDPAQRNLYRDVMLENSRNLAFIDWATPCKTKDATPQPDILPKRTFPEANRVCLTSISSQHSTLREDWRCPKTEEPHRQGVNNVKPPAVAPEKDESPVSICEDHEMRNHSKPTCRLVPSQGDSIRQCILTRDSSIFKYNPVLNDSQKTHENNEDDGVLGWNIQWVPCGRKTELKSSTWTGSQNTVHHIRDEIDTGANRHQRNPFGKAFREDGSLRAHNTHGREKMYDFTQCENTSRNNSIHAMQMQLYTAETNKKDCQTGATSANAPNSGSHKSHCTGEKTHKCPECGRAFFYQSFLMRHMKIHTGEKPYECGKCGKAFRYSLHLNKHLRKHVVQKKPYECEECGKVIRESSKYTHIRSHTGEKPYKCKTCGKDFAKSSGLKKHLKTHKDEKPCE
UniProt P43694: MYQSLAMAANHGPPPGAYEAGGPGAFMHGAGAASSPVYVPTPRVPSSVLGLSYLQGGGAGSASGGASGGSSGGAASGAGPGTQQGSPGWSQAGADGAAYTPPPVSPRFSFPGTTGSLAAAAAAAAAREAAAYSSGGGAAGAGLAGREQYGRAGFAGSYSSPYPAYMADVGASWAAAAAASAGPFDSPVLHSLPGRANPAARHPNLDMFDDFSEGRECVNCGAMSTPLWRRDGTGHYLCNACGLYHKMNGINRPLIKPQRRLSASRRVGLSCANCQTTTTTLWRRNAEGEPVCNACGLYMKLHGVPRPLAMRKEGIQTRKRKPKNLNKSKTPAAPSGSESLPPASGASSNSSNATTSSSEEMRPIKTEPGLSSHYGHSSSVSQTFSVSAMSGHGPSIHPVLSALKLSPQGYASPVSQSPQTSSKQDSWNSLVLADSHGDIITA
UniProt P17035: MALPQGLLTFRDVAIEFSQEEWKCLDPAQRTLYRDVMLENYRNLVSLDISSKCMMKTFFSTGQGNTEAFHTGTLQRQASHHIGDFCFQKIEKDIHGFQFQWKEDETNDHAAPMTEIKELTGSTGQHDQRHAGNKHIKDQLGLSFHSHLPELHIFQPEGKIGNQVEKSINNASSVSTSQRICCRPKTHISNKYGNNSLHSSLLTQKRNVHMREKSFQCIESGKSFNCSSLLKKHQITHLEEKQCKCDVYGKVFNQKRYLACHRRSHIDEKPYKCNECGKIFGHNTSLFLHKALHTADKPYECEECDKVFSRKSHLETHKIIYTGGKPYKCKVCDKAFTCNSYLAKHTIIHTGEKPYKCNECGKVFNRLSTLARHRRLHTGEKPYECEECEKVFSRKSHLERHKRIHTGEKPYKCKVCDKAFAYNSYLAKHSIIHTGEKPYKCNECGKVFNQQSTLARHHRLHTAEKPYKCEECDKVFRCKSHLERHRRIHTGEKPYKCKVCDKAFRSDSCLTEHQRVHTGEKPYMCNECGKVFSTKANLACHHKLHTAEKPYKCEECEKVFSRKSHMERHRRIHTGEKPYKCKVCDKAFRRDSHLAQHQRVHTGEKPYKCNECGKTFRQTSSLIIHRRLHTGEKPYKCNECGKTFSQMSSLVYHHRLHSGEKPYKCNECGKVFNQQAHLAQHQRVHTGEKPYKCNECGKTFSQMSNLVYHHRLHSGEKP
UniProt P23771: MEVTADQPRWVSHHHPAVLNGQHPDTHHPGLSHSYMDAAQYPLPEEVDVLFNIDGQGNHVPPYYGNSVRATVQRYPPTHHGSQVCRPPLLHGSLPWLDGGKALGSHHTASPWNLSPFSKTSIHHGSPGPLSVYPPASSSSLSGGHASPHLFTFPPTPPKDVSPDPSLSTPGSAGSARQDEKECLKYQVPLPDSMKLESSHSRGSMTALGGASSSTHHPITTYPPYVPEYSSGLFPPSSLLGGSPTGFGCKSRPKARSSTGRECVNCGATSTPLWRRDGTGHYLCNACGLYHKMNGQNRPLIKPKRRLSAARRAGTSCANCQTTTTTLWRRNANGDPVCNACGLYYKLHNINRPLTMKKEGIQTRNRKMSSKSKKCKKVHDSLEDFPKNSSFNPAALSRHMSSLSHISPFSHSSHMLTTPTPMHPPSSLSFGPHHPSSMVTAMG
UniProt P31269, whole entry: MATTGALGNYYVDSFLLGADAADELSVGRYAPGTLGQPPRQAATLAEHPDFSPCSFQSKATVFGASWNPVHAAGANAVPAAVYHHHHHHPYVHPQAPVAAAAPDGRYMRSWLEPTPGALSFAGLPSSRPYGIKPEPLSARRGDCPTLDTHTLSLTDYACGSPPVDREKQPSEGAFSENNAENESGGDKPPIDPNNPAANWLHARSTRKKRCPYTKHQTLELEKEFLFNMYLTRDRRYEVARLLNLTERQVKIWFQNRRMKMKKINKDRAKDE
UniProt P37231: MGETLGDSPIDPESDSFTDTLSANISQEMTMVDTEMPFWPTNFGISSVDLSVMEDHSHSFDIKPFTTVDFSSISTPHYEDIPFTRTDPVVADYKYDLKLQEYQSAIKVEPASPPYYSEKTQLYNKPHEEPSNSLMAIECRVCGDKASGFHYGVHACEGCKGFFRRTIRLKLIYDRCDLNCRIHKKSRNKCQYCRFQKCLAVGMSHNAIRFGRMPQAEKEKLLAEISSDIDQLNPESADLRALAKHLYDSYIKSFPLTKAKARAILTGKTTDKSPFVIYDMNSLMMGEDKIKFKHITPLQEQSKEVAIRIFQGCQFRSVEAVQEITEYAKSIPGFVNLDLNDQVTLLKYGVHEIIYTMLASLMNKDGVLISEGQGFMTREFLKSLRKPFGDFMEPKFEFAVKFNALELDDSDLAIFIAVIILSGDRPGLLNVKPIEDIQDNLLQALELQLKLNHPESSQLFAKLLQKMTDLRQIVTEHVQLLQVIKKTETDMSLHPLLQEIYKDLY
UniProt P19793: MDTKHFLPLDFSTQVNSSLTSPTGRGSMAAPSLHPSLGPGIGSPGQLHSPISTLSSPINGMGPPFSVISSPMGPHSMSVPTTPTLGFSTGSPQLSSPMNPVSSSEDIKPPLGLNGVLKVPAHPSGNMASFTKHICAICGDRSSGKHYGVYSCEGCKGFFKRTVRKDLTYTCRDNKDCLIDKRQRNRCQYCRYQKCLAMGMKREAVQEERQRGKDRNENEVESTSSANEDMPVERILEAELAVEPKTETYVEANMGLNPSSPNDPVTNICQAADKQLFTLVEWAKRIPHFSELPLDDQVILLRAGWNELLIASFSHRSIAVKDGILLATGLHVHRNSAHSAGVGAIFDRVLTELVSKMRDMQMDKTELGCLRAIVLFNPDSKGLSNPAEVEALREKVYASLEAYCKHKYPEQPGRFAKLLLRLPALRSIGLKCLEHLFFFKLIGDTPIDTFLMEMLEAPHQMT
UniProt Q14145, whole entry: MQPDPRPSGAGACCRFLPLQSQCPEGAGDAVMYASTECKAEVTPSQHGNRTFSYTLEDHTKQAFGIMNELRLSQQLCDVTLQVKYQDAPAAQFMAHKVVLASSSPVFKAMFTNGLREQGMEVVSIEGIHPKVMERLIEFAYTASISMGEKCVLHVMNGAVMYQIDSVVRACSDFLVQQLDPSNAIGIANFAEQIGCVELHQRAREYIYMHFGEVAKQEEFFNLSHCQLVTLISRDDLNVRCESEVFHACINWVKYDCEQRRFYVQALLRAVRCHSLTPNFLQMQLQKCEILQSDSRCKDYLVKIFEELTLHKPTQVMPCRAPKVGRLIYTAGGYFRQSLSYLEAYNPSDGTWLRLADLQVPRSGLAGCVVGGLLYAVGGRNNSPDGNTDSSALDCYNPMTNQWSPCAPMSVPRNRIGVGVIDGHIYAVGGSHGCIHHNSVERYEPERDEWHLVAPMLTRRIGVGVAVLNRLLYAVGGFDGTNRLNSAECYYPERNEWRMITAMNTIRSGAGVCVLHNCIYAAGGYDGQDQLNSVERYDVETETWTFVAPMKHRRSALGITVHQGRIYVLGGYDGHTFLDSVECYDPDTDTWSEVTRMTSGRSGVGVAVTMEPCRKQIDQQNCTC

Columns and labels:
Experiment in all cases: protein microarray
Conditions in all cases: 10-fold cold unmethylated competitor; 5mC at CpG (SssI, both strands); recombinant protein; protein details: GST (N-terminal); label: Cy5
ZNF695 (Homo sapiens) = ZNF695 (Homo sapiens) (UniProt Q8IW36)
ZNF416 (Homo sapiens) = ZNF416 (Homo sapiens) (UniProt Q9BWM5)
HOXA5 (Homo sapiens) = HOXA5 (Homo sapiens) (UniProt P20719)
E2F3 (Homo sapiens) = E2F3 (Homo sapiens) (UniProt O00716)
ZNF114 (Homo sapiens) = ZNF114 (Homo sapiens) (UniProt Q8NC26)
NFATC1 (Homo sapiens) = molecular target: T1, NFATC1 (Homo sapiens) (UniProt O95644)
T1 sequence (looked up, limits assumed): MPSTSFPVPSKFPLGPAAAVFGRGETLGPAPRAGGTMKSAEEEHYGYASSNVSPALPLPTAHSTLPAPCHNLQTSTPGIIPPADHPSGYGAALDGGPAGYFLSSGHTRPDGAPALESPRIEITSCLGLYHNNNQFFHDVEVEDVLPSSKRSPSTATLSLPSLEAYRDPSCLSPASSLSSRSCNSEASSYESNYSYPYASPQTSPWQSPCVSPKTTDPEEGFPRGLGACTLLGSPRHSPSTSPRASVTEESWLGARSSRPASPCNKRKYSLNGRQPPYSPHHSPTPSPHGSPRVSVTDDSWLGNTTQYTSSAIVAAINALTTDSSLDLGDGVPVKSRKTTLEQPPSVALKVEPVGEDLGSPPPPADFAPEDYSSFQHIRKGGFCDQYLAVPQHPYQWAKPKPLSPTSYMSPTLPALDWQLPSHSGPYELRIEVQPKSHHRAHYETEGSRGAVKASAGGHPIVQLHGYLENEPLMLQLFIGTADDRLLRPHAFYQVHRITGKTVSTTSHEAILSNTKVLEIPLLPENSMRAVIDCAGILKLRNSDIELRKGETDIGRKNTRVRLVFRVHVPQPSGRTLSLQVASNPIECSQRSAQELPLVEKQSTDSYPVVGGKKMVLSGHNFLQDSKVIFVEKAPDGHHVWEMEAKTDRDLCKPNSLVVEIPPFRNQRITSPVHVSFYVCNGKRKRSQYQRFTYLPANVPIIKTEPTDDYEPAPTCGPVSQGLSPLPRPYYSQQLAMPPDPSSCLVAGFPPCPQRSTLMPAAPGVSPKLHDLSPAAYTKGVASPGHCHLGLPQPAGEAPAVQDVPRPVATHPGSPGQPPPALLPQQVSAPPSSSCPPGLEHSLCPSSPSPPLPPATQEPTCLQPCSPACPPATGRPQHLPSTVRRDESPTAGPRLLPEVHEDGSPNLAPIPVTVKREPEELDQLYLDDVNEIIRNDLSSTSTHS

GATA4 (Homo sapiens) = GATA4 (Homo sapiens) (UniProt P43694)
SCAPER (Homo sapiens) = molecular target: T2, SCAPER (Homo sapiens) (UniProt Q9BY12)
T2 sequence (looked up, limits assumed): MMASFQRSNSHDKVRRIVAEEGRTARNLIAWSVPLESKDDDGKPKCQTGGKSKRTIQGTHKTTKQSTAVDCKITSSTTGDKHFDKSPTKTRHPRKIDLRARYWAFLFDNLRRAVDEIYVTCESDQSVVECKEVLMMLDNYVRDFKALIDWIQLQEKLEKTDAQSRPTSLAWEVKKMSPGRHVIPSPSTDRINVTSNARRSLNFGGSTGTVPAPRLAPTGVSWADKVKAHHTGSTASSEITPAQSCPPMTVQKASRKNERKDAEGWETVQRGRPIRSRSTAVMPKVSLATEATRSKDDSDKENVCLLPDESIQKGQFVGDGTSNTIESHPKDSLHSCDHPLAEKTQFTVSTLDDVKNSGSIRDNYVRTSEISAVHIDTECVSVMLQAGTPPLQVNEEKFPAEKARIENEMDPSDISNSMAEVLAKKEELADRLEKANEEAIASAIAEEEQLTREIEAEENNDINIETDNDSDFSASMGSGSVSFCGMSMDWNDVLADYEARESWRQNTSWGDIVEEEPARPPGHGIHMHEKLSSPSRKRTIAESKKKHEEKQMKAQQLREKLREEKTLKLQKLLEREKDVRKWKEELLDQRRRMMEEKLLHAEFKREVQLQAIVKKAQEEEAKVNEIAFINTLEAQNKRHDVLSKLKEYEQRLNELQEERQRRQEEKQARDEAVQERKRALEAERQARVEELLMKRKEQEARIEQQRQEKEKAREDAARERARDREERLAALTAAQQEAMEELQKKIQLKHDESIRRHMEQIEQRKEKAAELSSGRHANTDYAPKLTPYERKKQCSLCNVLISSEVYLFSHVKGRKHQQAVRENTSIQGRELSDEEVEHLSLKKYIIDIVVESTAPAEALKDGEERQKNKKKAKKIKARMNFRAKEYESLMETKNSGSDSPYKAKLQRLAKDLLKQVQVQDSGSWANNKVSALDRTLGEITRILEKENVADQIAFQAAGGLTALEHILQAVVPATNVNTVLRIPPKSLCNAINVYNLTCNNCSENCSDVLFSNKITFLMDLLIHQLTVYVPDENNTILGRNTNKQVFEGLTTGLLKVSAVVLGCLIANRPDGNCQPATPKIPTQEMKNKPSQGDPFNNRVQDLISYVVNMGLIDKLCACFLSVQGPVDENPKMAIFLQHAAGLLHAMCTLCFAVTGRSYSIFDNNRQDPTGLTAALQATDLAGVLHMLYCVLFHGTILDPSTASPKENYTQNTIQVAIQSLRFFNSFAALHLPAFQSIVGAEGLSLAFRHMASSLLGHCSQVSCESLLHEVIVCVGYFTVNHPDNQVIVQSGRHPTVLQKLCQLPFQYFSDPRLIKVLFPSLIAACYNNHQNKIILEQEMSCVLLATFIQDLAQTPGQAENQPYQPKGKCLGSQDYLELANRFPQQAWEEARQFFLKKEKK

ZNF28 (Homo sapiens) = ZNF28 (Homo sapiens) (UniProt P17035)
GATA3 (Homo sapiens) = GATA3 (Homo sapiens) (UniProt P23771)
SMAD4 (Homo sapiens) = molecular target: T3, SMAD4 (Homo sapiens) (UniProt Q13485)
T3 sequence (looked up, limits assumed): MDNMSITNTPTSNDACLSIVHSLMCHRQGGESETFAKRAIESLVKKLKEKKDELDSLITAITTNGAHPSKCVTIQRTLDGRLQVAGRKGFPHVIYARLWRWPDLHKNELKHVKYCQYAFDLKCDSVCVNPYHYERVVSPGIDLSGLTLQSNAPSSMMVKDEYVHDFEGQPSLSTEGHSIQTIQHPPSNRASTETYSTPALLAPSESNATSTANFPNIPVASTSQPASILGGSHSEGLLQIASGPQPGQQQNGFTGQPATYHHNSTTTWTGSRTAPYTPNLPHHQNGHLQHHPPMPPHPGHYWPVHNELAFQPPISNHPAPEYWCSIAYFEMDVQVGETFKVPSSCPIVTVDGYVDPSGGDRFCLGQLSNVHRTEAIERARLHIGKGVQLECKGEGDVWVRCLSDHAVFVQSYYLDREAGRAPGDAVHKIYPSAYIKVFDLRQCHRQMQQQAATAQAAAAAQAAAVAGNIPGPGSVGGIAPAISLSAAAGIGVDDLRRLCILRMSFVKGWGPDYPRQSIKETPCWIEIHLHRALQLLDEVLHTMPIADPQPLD

HOXA9 (Homo sapiens) = HOXA9 (Homo sapiens) (UniProt P31269)
PPARG (Homo sapiens) = PPARG (Homo sapiens) (UniProt P37231)
RXRA (Homo sapiens) = RXRA (Homo sapiens) (UniProt P19793)
BCL3 (Homo sapiens) = molecular target: T4, BCL3 (Homo sapiens) (UniProt P20749)
T4 sequence (looked up, limits assumed): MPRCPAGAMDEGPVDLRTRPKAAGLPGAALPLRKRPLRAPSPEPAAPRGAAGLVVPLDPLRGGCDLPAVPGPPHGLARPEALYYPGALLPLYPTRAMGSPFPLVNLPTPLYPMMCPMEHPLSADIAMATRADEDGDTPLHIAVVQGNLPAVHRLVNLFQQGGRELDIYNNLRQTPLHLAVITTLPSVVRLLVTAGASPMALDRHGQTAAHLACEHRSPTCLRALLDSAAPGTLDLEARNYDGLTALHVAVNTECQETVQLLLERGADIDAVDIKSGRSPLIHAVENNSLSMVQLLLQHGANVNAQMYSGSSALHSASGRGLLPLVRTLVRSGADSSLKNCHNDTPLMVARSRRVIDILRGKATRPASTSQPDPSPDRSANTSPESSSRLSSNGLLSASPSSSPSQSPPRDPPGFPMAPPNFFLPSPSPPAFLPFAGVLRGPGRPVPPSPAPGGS

RNF138 (Homo sapiens) = molecular target: T5, RNF138 (Homo sapiens) (UniProt Q8WVD3)
T5 sequence (looked up, limits assumed): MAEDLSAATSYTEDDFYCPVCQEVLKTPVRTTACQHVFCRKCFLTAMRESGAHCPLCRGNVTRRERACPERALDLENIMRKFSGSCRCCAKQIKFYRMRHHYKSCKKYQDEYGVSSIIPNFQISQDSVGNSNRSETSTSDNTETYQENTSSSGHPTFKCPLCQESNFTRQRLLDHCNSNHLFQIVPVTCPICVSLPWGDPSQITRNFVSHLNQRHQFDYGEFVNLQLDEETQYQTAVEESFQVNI

KEAP1 (Homo sapiens) = KEAP1 (Homo sapiens) (UniProt Q14145)
NRF1 (Homo sapiens) = molecular target: T6, NRF1 (Homo sapiens) (UniProt Q16656)
T6 sequence (looked up, limits assumed): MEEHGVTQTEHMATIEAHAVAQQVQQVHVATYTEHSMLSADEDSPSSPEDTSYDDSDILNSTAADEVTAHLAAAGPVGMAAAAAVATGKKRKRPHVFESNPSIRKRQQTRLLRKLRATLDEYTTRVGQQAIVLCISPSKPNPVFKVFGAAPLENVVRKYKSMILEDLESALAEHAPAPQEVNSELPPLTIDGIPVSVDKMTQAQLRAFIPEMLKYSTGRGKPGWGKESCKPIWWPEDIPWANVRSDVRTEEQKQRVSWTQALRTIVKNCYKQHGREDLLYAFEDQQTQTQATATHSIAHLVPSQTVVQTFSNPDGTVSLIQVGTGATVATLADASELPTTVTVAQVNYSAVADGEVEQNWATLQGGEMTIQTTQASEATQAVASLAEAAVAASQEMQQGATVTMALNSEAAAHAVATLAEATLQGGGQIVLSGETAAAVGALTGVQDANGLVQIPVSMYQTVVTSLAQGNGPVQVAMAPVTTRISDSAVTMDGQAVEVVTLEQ

Measured: binding result

TTTCCGGAAAGGGTTTCCGGAAACCCTATAGTGAGTGCTATTA (double strand) [M2]
binds: ZNF695 (Homo sapiens) | ZNF416 (Homo sapiens) | HOXA5 (Homo sapiens) | E2F3 (Homo sapiens) | ZNF114 (Homo sapiens) | NFATC1 (Homo sapiens) | GATA4 (Homo sapiens) | SCAPER (Homo sapiens)

ACGTGCAGTTTACGTGCAGCCCTATAGTGAGTGCTATTA (double strand) [M452]
not listed: ZNF695 (Homo sapiens) | NFATC1 (Homo sapiens)
binds: all other assays above

CTCCGCCCAAACTCCGCCCCCCTATAGTGAGTGCTATTA (double strand) [M67]
not listed: ZNF695 (Homo sapiens) | NFATC1 (Homo sapiens) | GATA3 (Homo sapiens) | SMAD4 (Homo sapiens) | HOXA9 (Homo sapiens) | KEAP1 (Homo sapiens)
binds: all other assays above
